In experiment [1] the target is stromal interaction molecule 1 (STIM1) (human (endogenous in primary umbilical vein ECs)) (UniProt Q13586). The experiment is described as follows: co-IP; endogenous STIM1 immunoprecipitated (rabbit antibody) from lysates of wild-type ECs; 25 mM Tris-HCl pH 7.2, 150 mM NaCl, 1% NP-40, 4°C; Western blot. On the technique in general: In western blotting, separated proteins are transferred to a membrane and probed.

The chains behind the UniProt entries cited, without tags or fusion partners. Residues count along the entry.
UniProt Q13586, residues 23-685: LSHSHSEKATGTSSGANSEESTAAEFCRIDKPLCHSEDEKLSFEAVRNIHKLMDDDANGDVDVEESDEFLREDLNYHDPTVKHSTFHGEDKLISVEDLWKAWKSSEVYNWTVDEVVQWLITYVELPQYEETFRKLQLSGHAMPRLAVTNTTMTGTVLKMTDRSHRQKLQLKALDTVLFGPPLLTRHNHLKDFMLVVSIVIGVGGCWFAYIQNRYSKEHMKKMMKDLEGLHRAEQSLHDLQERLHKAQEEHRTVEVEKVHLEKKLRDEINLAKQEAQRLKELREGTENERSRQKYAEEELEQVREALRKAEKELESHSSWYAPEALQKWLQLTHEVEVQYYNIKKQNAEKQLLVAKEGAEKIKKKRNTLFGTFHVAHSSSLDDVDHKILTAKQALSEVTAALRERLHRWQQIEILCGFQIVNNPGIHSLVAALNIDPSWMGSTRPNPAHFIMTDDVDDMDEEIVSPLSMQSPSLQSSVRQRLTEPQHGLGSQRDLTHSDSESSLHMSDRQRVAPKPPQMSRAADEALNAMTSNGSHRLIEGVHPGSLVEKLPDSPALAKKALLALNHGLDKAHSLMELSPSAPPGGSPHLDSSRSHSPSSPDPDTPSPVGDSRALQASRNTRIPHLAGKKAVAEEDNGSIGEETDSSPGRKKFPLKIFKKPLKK
UniProt Q15691: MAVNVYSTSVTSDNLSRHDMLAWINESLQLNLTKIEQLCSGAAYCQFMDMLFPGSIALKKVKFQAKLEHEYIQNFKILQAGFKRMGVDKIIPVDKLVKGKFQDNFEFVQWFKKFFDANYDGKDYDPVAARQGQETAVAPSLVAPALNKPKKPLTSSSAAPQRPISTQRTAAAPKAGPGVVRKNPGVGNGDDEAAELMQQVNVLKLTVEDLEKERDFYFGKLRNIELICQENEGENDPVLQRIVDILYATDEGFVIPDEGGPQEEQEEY

Experiment [2] deals with T1, kinesin-14 KIFC1 (human (endogenous in primary umbilical vein ECs)) (UniProt Q9BW19).
T1 sequence: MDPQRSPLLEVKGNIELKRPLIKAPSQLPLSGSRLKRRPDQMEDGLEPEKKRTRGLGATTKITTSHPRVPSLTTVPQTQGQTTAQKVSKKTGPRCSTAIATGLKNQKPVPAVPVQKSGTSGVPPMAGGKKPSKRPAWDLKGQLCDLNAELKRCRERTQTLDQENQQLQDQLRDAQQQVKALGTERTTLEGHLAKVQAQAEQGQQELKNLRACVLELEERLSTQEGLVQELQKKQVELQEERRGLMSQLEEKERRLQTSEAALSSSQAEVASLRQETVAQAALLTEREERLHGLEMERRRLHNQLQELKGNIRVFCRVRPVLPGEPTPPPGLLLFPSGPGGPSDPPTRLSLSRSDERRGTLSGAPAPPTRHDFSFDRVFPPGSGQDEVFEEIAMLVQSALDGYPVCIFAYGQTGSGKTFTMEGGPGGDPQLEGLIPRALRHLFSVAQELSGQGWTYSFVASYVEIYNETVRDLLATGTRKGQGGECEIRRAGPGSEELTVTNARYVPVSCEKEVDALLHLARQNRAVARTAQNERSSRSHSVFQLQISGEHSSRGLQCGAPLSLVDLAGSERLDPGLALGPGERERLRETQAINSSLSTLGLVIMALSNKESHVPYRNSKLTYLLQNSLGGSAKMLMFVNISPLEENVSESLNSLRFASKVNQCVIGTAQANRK
Nature of the experiment: co-IP; endogenous KIFC1 immunoprecipitated (mouse antibody) from lysates of wild-type ECs; 25 mM Tris-HCl pH 7.2, 150 mM NaCl, 1% NP-40, 4°C; Western blot.

The target of experiment [3] is MT plus end-binding protein 1 (EB1) (human (endogenous in primary umbilical vein ECs)) (UniProt Q15691). Nature of the experiment: co-IP; endogenous EB1 immunoprecipitated (mouse anti-EB1) from lysates of shCTL or shSTIM1 ECs; 1 mg lysate, 25 mM Tris-HCl pH 7.2, 150 mM NaCl, 1% NP-40, 4°C; Western blot.

No constants are given. Whether binding was seen depends on the method and setting. In cells and extracts the contact can be indirect. Some binding calls cover weakened binding; strength is not graded here.

With “p150Glued subunit of dynactin (from UniProt Q14203-1 1-1278)”, the binding result in experiment [1], in experiment [2] and in experiment [3] was “binds” in each case.
For the substance “MT plus end-binding protein 1 (EB1) (from UniProt Q15691 1-268)”, the binding entry in experiment [1] is listed as “binds”.

The values are drawn from PMC7737607.
